Test results taken from PMC11610224.
These are yes or no findings as the source states them, for the method shown. Binding seen in cells or lysates may run through a third protein. Some results given as binding are weak or reduced against the parent protein; the word gives no strength.

The chains behind the UniProt entries cited, without tags or fusion partners.
UniProt Q9C0C7: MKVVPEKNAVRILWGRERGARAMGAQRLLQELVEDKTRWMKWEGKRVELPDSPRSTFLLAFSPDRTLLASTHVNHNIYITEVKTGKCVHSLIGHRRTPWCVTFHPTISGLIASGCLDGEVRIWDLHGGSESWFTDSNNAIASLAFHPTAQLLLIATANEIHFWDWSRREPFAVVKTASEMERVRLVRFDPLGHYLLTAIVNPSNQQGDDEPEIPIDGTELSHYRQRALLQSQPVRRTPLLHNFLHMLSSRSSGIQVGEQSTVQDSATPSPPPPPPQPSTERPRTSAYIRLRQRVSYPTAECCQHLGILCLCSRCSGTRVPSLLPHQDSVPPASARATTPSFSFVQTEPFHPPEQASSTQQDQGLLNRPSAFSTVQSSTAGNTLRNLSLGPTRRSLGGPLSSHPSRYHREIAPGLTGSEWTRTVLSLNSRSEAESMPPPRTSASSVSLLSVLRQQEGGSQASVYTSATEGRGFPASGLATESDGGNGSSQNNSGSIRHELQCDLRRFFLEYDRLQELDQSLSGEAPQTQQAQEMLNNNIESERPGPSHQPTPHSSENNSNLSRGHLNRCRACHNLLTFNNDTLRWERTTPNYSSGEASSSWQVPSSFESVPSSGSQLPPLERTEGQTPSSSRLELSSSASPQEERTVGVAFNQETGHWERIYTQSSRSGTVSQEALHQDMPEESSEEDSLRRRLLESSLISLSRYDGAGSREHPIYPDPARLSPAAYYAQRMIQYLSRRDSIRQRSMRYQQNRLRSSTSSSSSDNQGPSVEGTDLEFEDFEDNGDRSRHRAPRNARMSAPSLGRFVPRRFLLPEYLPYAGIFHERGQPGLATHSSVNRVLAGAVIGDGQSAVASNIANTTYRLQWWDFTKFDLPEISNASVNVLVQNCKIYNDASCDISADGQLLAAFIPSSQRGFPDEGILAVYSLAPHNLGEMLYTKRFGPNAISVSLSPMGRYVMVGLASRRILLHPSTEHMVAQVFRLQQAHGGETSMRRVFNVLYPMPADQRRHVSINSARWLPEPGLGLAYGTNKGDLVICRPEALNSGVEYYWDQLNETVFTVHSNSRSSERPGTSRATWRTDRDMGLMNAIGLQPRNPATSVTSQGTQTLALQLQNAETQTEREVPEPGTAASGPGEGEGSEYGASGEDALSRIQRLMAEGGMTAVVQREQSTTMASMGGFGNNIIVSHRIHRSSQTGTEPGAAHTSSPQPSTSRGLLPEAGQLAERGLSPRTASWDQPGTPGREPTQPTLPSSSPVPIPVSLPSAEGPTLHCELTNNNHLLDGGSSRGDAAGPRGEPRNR
UniProt Q96GD4: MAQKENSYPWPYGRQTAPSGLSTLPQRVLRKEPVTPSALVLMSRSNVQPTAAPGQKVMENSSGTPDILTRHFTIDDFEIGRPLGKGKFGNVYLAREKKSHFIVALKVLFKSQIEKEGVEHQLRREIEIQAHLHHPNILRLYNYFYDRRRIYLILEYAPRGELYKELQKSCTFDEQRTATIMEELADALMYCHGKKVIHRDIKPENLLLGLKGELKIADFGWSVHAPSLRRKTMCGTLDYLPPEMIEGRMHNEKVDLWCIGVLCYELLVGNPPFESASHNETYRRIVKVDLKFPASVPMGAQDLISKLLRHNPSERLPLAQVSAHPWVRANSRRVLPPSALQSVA

B1: AURKA (protein, UniProt O14965 1-403)
chain: MDRSKENCISGPVKATAPVGGPKRVLVTQQFPCQNPLPVNSGQAQRVLCPSNSSQRIPLQAQKLVSSHKPVQNQKQKQLQATSVPHPVSRPLNNTQKSKQPLPSAPENNPEEELASKQKNEESKKRQWALEDFEIGRPLGKGKFGNVYLAREKQSKFILALKVLFKAQLEKAGVEHQLRREVEIQSHLRHPNILRLYGYFHDATRVYLILEYAPLGTVYRELQKLSKFDEQRTATYITELANALSYCHSKRVIHRDIKPENLLLGSAGELKIADFGWSVHAPSSRRTTLCGTLDYLPPEMIEGRMHDEKVDLWSLGVLCYEFLVGKPPFEANTYQETYKRISRVEFTFPDFVTEGARDLISRLLKHNPSQRPMLREVLEHPWITANSSKPSNCQNKESASKQS

How the values were obtained:
3xFLAG-AMBRA1 [1] = biological target: 3xFLAG-AMBRA1 (UniProt Q9C0C7); assay: co-IP; anti-FLAG immunoprecipitation from lysates of ATRT cell lines expressing AMBRA1-FLAG, western blot; MLN4924-treated cells; results told for the cell lines together or for CHLA266 (AMBRA1 responder)
3xFLAG-AMBRA1 [2] = biological target: 3xFLAG-AMBRA1 (UniProt Q9C0C7); assay: condition: only in BT12 cells (AMBRA1 non-responder); co-IP; anti-FLAG immunoprecipitation from lysate of BT12 cells (AMBRA1 non-responder) expressing AMBRA1-FLAG, western blot
3xFLAG-AMBRA1 [3] = biological target: 3xFLAG-AMBRA1 (UniProt Q9C0C7); assay: co-IP; anti-FLAG immunoprecipitation from lysates of ATRT cell lines expressing AMBRA1-FLAG, western blot; MLN4924-treated cells; results told for the cell lines together or for CHLA266 (AMBRA1 responder); remark: listed apart in the source

| Molecule | binding (3xFLAG-AMBRA1 [1]) | binding (3xFLAG-AMBRA1 [2]) | binding (3xFLAG-AMBRA1 [3]) |
| --- | --- | --- | --- |
| AURKB (from UniProt Q96GD4 1-344) | binds weakly | no binding |  |
| B1 |  | no binding | binds |
